“And” between values parts separate entries of the source, which are not always exact repeats. Equal values may be shown once.
Test system: C. ragsdalei P11
Assay: Carboxylic acid reduction in batch cultures with constant syngas supply
Format: cell-based, Clostridium ragsdalei
Conditions: 15 mM carboxylic acid
Method: All chemicals were purchased from Sigma-Aldrich, St. Louis, Mo., unless stated otherwise. Bacterial strain and growth conditions. Most experiments were conducted with C. ljungdahlii ERI-2 (ATTC 55380), which has been used successfully for syngas to ethanol fermentation. Some experiments were repeated with C. ragsdalei P11 (ATTC BAA-622). Bacteria were grown anaerobically at 35° C. in medium designed for efficient syngas fermentation. This medium is mostly based on ATCC medium 1754 but contains higher concentrations of the macronutrient elements. The yeast extract concentration was 0.5 g/L or 0.0 g/L as indicated for each experiment; the concentration of MES (2-(N-morpholino)ethanesulfonic acid) was 150 mM; carboxylic acids (propionic, n-butyric, isobutyric, n-valeric or n-caproic acid) were added to final concentrations of 15 mM before adjustment of the pH to 5.5. The syngas atmosphere was a synthetic blend of 60% [vol/vol]carbon monoxide, 35% hydrogen, and 5% carbon dioxide (Airgas East, Ithaca, N.Y.). Precultures of C. ljungdahlii or C. ragsdalei were grown in 250 ml serum bottles containing 20 ml medium with 0.5 g/L or 0.0 g/L yeast extract (the latter for inoculation of experiments with no yeast extract) and syngas in the headspace at a pressure of 28 psi with finite amounts of syngas. Precultures were maintained in an active state by weekly transfer of 2% into a fresh serum bottle with a headspace of finite syngas.
Experimental setup. The experiments to determine the ability of C. ljungdahlii to reduce propionic acid, n-butyric acid, n-valeric acid, n-caproic acid, or isobutyric acid (2-methyl propionic acid) to the corresponding alcohols were performed in triplicate in 250 ml rubber-stoppered Pyrex glass bottles (Fisher Scientific, Pittsburgh, Pa.), which were used as batch systems in regards to the growth medium, but with constant syngas supply (FIG. 1A). Three stainless steel needles of different length (21 gauge, Becton Dickinson Franklin Lakes, N.J., and ColeParmer, Vernon Hills, Ill.) were punched through each rubber stopper as gas supply, vent, and sample ports. The reactors were filled with 220 mL medium containing 0.5 g/L yeast extract and one of each carboxylic acids at a concentration of 15 mM, autoclaved, and then equipped with fermentation airlocks (www.winemakingsuperstore.com) filled with 5% sulfuric acid to prevent contamination by other microbes or oxygen, and placed in a temperature-controlled recirculating water bath for mechanical agitation using a 15 multi-position IKA magnetic stirrer (Cole-Parmer Vernon Hills, Ill. 60061 USA). […]
Analytical procedures. Cell dry weight concentration in the cultures was determined through measurement of the optical density with a Milton Roy Spectronic 1201 spectrophotometer at a wavelength of 600 nm after determining a correlation coefficient of 242 mg dry weight/(L*OD600nm). The carbon content was calculated using the universal proportion of elements in microbial biomass (C5H7O2N). A gas chromatography system (HP 5890, Hewlett Packard, Palo Alto, Calif.), which was equipped with a 7673 autoinjector and flame ionization detector, was used for the quantification of carboxylic acids and alcohols. […]

SMILES: CCCC(=O)O [n-butyric acid]
- alcohol from carboxylic acid produced at end of experiment: 4.81 mM and 4.81 ± 1.55 mM
- consumed carboxylic acid: 6.85 ± 1.23 mM
- final acetic acid produced at end of experiment: 64.13 ± 11.64 mM
- final ethanol produced at end of experiment: 24.87 ± 9.75 mM
- final pH (start pH 5.5): 4.83 ± 0.10
